Some of these results come from one statement about several compounds together.
Tested on: HIV-1 Rev protein RNA recognition element (RRE)
Assay: Fluorescence anisotropy: displacement of fluorescein-labeled Rev peptide from the RRE in solution
Type: binding
Conditions: fluorescence anisotropy IC50, guanidinylated vs parent
Text: In a modification of the above assay, the solid support aspect of the above embodiment is removed. The biophysical characteristics of potential inhibitory test compounds can be detected by fluorescence anisotropy as depicted in FIG. 5. The RRE-bound fluorescent peptide has a slower Brownian tumbling motion relative to the free peptide in solution. Upon displacement of the fluorescently labeled Rev from the RRE by a competing inhibitor, a decrease in the anisotropy value is observed. The displacement of the labeled-Rev can be followed by monitoring the anisotropy at the emission wavelength of the Rev34-50-bound fluorophore.
The HIV-1 Rev-RRE interaction was used to examine the impact of guanidinylation upon RNA binding, and to probe the potential antiviral activity of these compounds. The binding of Rev to the RRE (Rev response element) is responsible for the export of unspliced and singly spliced HIV genomic RNA out of the host nucleus. This essential protein-RNA interaction remains an important, and nonutilized, therapeutic target. The high-affinity Rev binding site on the RRE has been localized to the purine-rich bulge. The binding of Rev to the RRE is governed by the arginine-rich fragment, Rev34-50. […] Fluorescence anisotropy has been employed to determine the affinity of the new derivatives to the RRE in solution. […]

Structure (SMILES)	increase in inhibitory activity upon guanidinylation relative to the parent compound
NC[C@H]1O[C@H](O[C@H]2[C@H](O)[C@@H](O[C@H]3O[C@H](CO)[C@@H](O)[C@H](N)[C@H]3O)[C@H](N)C[C@@H]2N)[C@H](N)[C@@H](O)[C@@H]1O [KanamycinB, Kanamycin B]	greater than 10 fold
NC[C@H]1O[C@H](O[C@H]2[C@H](O)[C@@H](O[C@H]3O[C@H](CO)[C@@H](O)[C@H](N)[C@H]3O)[C@H](N)C[C@@H]2N)[C@H](N)C[C@@H]1O [Tobramycin]	greater than 10 fold
